# Measurements taken from the supplement of paper PMC12889115.
# This is one part of the list. These are raw signals, not scaled to a control.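 First-pass screen: polymyxin B was added at a level that permeabilizes the Salmonella outer membrane while sparing the inner membrane. DMSO wells, with and without polymyxin B, defined maximum growth. Because plates differed from one another, each plate's data were ranked separately and the compounds with the lowest OD600 were carried forward as hits.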
# Tested on: Salmonella enterica serovar Typhimurium SL1344
# Test: bacterial growth OD600 after 18 h with compound and polymyxin B; higher = more bacterial growth (less inhibition)
# Details: 50 µM, Mueller-Hinton broth
SMILES,bacterial growth OD600 (polymyxin B 1 µg/mL),bacterial growth OD600 (polymyxin B 0.75 µg/mL)
COc1ccc(-c2nn(-c3ccccc3)cc2CNC(C)Cn2cncn2)c(F)c1 (stereo unspecified),0.771,–
CC(C)c1nccn1Cc1cc(C(=O)NCc2cc(F)ccc2F)n[nH]1,–,0.965
COc1ccc(CC2(CCC(=O)NCc3cccc(C(F)(F)F)c3)CCC(=O)N2)cc1OC (stereo unspecified),–,0.753
OCCOc1cccc(CN2CCOc3ccc(C(O)Cc4ccccc4)cc3C2)c1 (stereo unspecified),–,0.782
O=C(Cn1cnnn1)N1CCCC(N2CCN(c3cccc(C(F)(F)F)c3)CC2)C1 (stereo unspecified),0.893,–
OCC1(Cc2ccccc2Cl)CCN(Cc2cccn2-c2ccccn2)CC1,0.922,–
CN(Cc1ccccc1)Cc1cc(C(=O)NCc2ncc[nH]2)no1,1.05,–
CCC1CN(Cc2cccc(C)n2)Cc2cc(OC)ccc2O1 (stereo unspecified),–,0.841
CCOC(=O)C1(Cc2ccccc2C)CCCN(C(=O)c2ccccn2)C1 (stereo unspecified),0.776,–
COc1ccccc1CCC(=O)N1CCCC(C(=O)c2cccc3ccccc23)C1 (stereo unspecified),0.52,–
COCc1ccc(C(=O)Nc2ccc(-c3nc(CNC(=O)Cn4nc(C)cc4C)c(C)o3)cc2)o1,–,0.818
CN(C(=O)CC(c1ccc(O)cc1)c1cccc(O)c1)C1CCOCC1 (stereo unspecified),0.911,–
COc1ccc(CCNC2CCN(c3nc(C)c4ccc(S(C)(=O)=O)cc4n3)CC2)cc1OC,–,0.8
CC(C)/C=C/CN1CCOc2ccc(C(O)Cc3ccccc3)cc2C1 (stereo unspecified),–,0.135
COc1ccc(CC2(CCC(=O)NCc3nc4cc(C(F)(F)F)ccc4n3C)CCC(=O)N2)cc1 (stereo unspecified),–,0.82
COc1ccc(S(=O)(=O)NCC2CCCN(Cc3cccc(C)n3)C2)cc1 (stereo unspecified),0.908,–

# Exported with bars between the fields: part of the list above.
SMILES | bacterial growth OD600 (polymyxin B 1 µg/mL) | bacterial growth OD600 (polymyxin B 0.75 µg/mL)
CN(C(=O)CC(c1ccc(O)cc1)c1cccc(O)c1)C1CCOCC1 (stereo unspecified) | 0.911 | –
COc1ccc(CCNC2CCN(c3nc(C)c4ccc(S(C)(=O)=O)cc4n3)CC2)cc1OC | – | 0.8

# Going on with the list:

SMILES,bacterial growth OD600 (polymyxin B 1 µg/mL),bacterial growth OD600 (polymyxin B 0.75 µg/mL)
CC(C)N(Cc1cn(C)nc1-c1ccc2c(c1)OCCO2)Cc1nccn1C,0.624,–
O=C(CCn1cnc2ccccc21)NC1CCCN(C2Cc3ccccc3C2)C1 (stereo unspecified),0.992,–
CCN(CC1CCCN(CCc2cccc(F)c2)C1)C(C)=O (stereo unspecified),0.925,–
COC(=O)c1cc(CNC(=O)Cc2ccccc2C)cc(NC(=O)c2ccco2)c1,–,0.741
COCc1c(C(=O)NCCN2CCOCC2)cnn1-c1ncc2c(n1)-c1ccccc1CCC2,–,0.841
COc1cccc(-c2cnc(-c3ccncc3)nc2C2CCN(Cc3cc(OC)ccc3OC)CC2)c1,–,0.98
CC(C)C(CO)NC(=O)C1(N2CCCCC2)Cc2ccccc2C1 (stereo unspecified),–,0.587
C=CCC(O)(CC=C)CNC1CCN(c2ccc(C(=O)NCCN3CCOCC3)cc2)CC1,–,0.854
COC(=O)c1ccc(C(=O)N2CCCC(Nc3ccc(F)cc3)C2)cc1 (stereo unspecified),0.884,–
O=C(c1cccs1)N1CCC(C2CCN(c3ncccn3)CC2)C1 (stereo unspecified),–,0.749
CCOC(=O)N1CCN(C(=O)C2CCC(=O)N(CCCN3CCOCC3)C2)CC1 (stereo unspecified),0.88,–
O=C(CCc1ccccc1F)NC1CCCN(C2CCCCCC2)C1 (stereo unspecified),0.957,–
Cc1cc(C)c(CN2CCC(N3CCCC(C(=O)NC4CC4)C3)CC2)cc1C (stereo unspecified),–,0.818
Fc1ccc(CC2CCN(Cc3nc(Cc4cccc(F)c4)no3)CC2)cc1,0.821,–
CCN1CCCC1CNC(=O)CCC1CCN(C(=O)c2cc(C)n(C)n2)CC1 (stereo unspecified),–,0.794
